PubChem BioAssay AID1259264 | Sanger Institute – 2017
Purpose: 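Kinase-wide knock-down to find genes that strengthen targeted drug effects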 (primary screen). Cell system: CL40 human colorectal cancer cells. Knock-down reagent: siRNA pool against human genes. Treatment: DMSO, or an anchor drug: BYL719 at 1 µM, cetuximab at 5 µg/ml, or trametinib at 10 nM. Read-out: 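Viability as a fraction of non-targeting pool control (replicates averaged), control-based robust z-score, plus averaged synergy for each drug: BYL719 1 µM, cetuximab 5 µg/ml, trametinib 10 nM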. Scale: robust z-score, siRNA alone and viability, siRNA alone: higher = more viable cells; synergy score with BYL719: higher = stronger combined killing with BYL719; synergy score with cetuximab: higher = stronger combined killing with cetuximab; synergy score with trametinib: higher = stronger combined killing with trametinib. Rule for the call: 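a gene counts as essential when knock-down without drug gives a robust z-score below -3, meaning fewer cells; synergy scores play no part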. Meaning of the calls: active = essential (lowers viability alone); inactive = not essential.
The whole screen tested 794 reagents; shown is a part drawn at random. In the full data, 15 (1.9%) got an active call. 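Calls rest on knock-down alone at z-score below -3; synergy scores with the three drugs do not decide them.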 Viability is capped at 1. The record does not give: the amount of reagent, the time to read-out.

| target | robust z-score, siRNA alone | viability, siRNA alone (fraction of control) | synergy score with BYL719 | synergy score with cetuximab | synergy score with trametinib | call |
| --- | --- | --- | --- | --- | --- | --- |
| CAMKK2 | 0.539 | 1 | -0.037 | -0.0174 | 0.101 | inactive |
| LATS2 | 0.514 | 0.998 | -0.0583 | -0.0192 | 0.0333 | inactive |
| TRIO | 0.336 | 0.985 | -0.115 | 0.00299 | 0.0639 | inactive |
| TPD52L3 | -0.0598 | 0.957 | -0.129 | -0.0596 | 0.137 | inactive |
| CDK9 | 0.0955 | 0.968 | -0.168 | 0.0434 | 0.00983 | inactive |
| MAP3K4 | -0.712 | 0.91 | -0.0482 | -0.0574 | 0.0443 | inactive |
| ALPK2 | 0.354 | 0.987 | 0.00726 | -0.0304 | 0.0727 | inactive |
| CHD9 | 0.539 | 1 | -0.121 | 0.0568 | -0.111 | inactive |
| VRK3 | 0.539 | 1 | -0.0879 | -0.0174 | -0.00811 | inactive |
| PIM2 | 0.539 | 1 | -0.0722 | -0.0174 | 0.149 | inactive |
| MAST1 | 0.539 | 1 | 0.0656 | -0.0164 | 0.0625 | inactive |
| PCK1 | -0.439 | 0.93 | -0.052 | -0.0405 | 0.0856 | inactive |
| DCLK1 | 0.539 | 1 | -0.00517 | -0.0174 | 0.0392 | inactive |
| NTN4 | 0.0669 | 0.966 | 0.0267 | 0.12 | 0.0804 | inactive |
| ALDH18A1 | 0.539 | 1 | -0.0974 | -0.0174 | 0.0499 | inactive |
| MAST3 | 0.539 | 1 | -0.0633 | -0.0174 | 0.142 | inactive |
| PIK3C2G | -1.79 | 0.833 | -0.106 | -0.182 | 0.112 | inactive |
| COMMD3 | 0.524 | 0.999 | -0.00403 | 0.0077 | 0.0635 | inactive |
| PPP2R1A | 0.539 | 1 | -0.109 | -0.0174 | 0.0426 | inactive |
| CKMT2 | -0.211 | 0.946 | -0.148 | -0.0702 | 0.101 | inactive |
| ZC3H11A | 0.539 | 1 | -0.0786 | -0.00131 | 0.136 | inactive |
| MAPK10 | 0.539 | 1 | -0.152 | -0.00688 | 0.0345 | inactive |
| MAPK7 | 0.539 | 1 | -0.111 | 0.0404 | 0.0917 | inactive |
| CTNNB1 | 0.539 | 1 | 0.0973 | 0.00482 | -0.048 | inactive |
| N4BP2 | 0.539 | 1 | -0.0536 | -0.0174 | 0.112 | inactive |
| ALPK1 | -0.56 | 0.921 | -0.205 | -0.0949 | 0.117 | inactive |
| PTK2 | 0.539 | 1 | 0.08 | -0.0174 | 0.126 | inactive |
| RPS6KA3 | 0.539 | 1 | -0.0728 | -0.0174 | 0.137 | inactive |
| SMAD4 | 0.539 | 1 | -0.0184 | 0.00317 | -0.00434 | inactive |
| PRKCI | -0.317 | 0.939 | -0.0887 | -0.03 | 0.0919 | inactive |
| CALM2 | 0.539 | 1 | 0.00302 | -0.0174 | 0.132 | inactive |
| ALPK3 | 0.00613 | 0.962 | -0.0166 | -0.015 | 0.123 | inactive |
| FXR1 | 0.301 | 0.983 | -0.17 | -0.0342 | 0.1 | inactive |
| STAG2 | 0.539 | 1 | -0.0442 | -0.0174 | 0.0557 | inactive |
| PRKY | -0.302 | 0.94 | 0.000777 | 0.0237 | 0.109 | inactive |
| FLT1 | 0.539 | 1 | -0.156 | -0.0174 | 0.0616 | inactive |
| MERTK | -1.69 | 0.84 | -0.161 | -0.163 | 0.0397 | inactive |
| EPHA7 | 0.19 | 0.975 | -0.133 | -0.042 | 0.0376 | inactive |
| ATP23 | -0.809 | 0.903 | -0.0263 | -0.112 | 0.0419 | inactive |
| DSTYK | 0.539 | 1 | -0.109 | -0.0174 | 0.102 | inactive |
| AK2 | 0.539 | 1 | -0.156 | -0.0174 | 0.126 | inactive |
| CIB2 | -2.5 | 0.782 | -0.0893 | 0.0356 | 0.064 | inactive |
| PAK1 | -0.0926 | 0.955 | -0.148 | -0.0619 | 0.101 | inactive |
| STK24 | 0.539 | 1 | -0.156 | -0.0174 | 0.145 | inactive |
| STK32C | 0.539 | 1 | -0.139 | -0.0174 | 0.0601 | inactive |
| ITPKA | 0.539 | 1 | -0.106 | -0.0174 | 0.0122 | inactive |
| MOK | 0.539 | 1 | -0.122 | 0.0886 | 0.169 | inactive |
| KMT2B | 0.46 | 0.994 | -0.161 | -0.023 | -0.0379 | inactive |
| PSKH1 | 0.539 | 1 | -0.156 | -0.0174 | -0.00114 | inactive |
| MKNK2 | 0.539 | 1 | -0.0179 | -0.0174 | 0.136 | inactive |

8 successive records already listed, for reference:
| target | robust z-score, siRNA alone | viability, siRNA alone (fraction of control) | synergy score with BYL719 | synergy score with cetuximab | synergy score with trametinib | call |
| --- | --- | --- | --- | --- | --- | --- |
| MAST1 | 0.539 | 1 | 0.0656 | -0.0164 | 0.0625 | inactive |
| PCK1 | -0.439 | 0.93 | -0.052 | -0.0405 | 0.0856 | inactive |
| DCLK1 | 0.539 | 1 | -0.00517 | -0.0174 | 0.0392 | inactive |
| NTN4 | 0.0669 | 0.966 | 0.0267 | 0.12 | 0.0804 | inactive |
| ALDH18A1 | 0.539 | 1 | -0.0974 | -0.0174 | 0.0499 | inactive |
| MAST3 | 0.539 | 1 | -0.0633 | -0.0174 | 0.142 | inactive |
| PIK3C2G | -1.79 | 0.833 | -0.106 | -0.182 | 0.112 | inactive |
| COMMD3 | 0.524 | 0.999 | -0.00403 | 0.0077 | 0.0635 | inactive |
